Results: US8038984B2 (Washington University, priority 1998, dated 2011)

Experiment: general procedure: Fmoc solid-phase peptide synthesis; BOP/HOBt
Details: whole synthesis, trifluoroacetate

| Substance | final HPLC purity [%] |
| --- | --- |
| Acetyl- GRKKRRQRRR-AHA- εKGC-amide | >94 |
| acetyl-GRKKRRQRRR-GDEVDG-εKGC-amide | >94 |
